Experimental data: PubChem BioAssay AID686943 (Drosophila RNAi Screening Center, 2013)
The deposit covers about 23,000 reagents; below is a random part of those with a known target gene and a result. 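Extra replicates exist only for a retested subset of genes; insulin dose and duration not given; both raised and lowered dpERK matter.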 Reagents against one gene are numbered here. Names joined by + are all predicted targets of the reagent. Not all columns of the deposit are shown. No sequences are given here. Not stated in the record: the amount of reagent, the time to read-out.

- Assay: 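Search across the genome for regulators of signalling from receptor tyrosine kinase to ERK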 (primary screen)
- Cell system: Drosophila S2R+ haemocyte-like cells expressing YFP-tagged ERK (Rolled)
- Reagents: long dsRNA against Drosophila genes
- Conditions: insulin stimulation versus unstimulated cells; dose and duration not given
- Detection: 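Antibody staining for doubly phosphorylated ERK divided by ERK-YFP signal, as plate z-scores, in insulin-treated and untreated cells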
- Scale: replicate 1, z-score of dpERK with insulin: higher = more active ERK per ERK-YFP after insulin

replicate 1, z-score of dpERK with insulin, by target and reagent
CG10516 (GeneID 39738): #1 0.71
Kul (GeneID 43501): #1 0.96
CG32278 + CG14963: #1 -0.08
PIG-B (GeneID 38446): #1 -0.12; #2 0.45
CG34426 (GeneID 5740622): #1 1.22
CG9825 (GeneID 37624): #1 -0.6
REPTOR-BP (GeneID 34371): #1 -0.5
Sdhaf3 (GeneID 42004): #1 1.67
Bruce (GeneID 41260): #1 -0.39
Jon99Fii + Jon99Cii + Jon99Ciii + 1 more: #1 1.02
AIF (GeneID 33390): #1 -0.91
CG14207 (GeneID 32955): #1 0.45; #2 -1.5
Got1 (GeneID 36782): #1 0.02
Tep4 (GeneID 35248): #1 -0.18
CG33477 (GeneID 2768726): #1 0.27
Obp19b (GeneID 33038): #1 -0.95
CG6733 (GeneID 42731): #1 0.13
Pkc98E (GeneID 43428): #1 -1.01
ath (GeneID 34357): #1 0.02
CG32176 (GeneID 39944): #1 -0.5; #2 -1.13
Vamp7 (GeneID 36015): #1 -0.27
GstO3 (GeneID 38972): #1 0.01
CG12885 (GeneID 43308): #1 -1.82
Rab3-GAP (GeneID 34626): #1 0.87
Fnta (GeneID 33682): #1 0.58
sav (GeneID 252554): #1 0.62; #2 -0.03
CG11112 (GeneID 35658): #1 -0.55
CG34198 (GeneID 5740481): #1 1.46
CG10062 (GeneID 37224): #1 0.43; #2 0.8
D2hgdh (GeneID 31184): #1 0.64
CG42680 (GeneID 10178899): #1 0.22
CG30286 (GeneID 246529): #1 -0.13
slx1 (GeneID 40578): #1 0.56
CG3592 (GeneID 31282): #1 0.43
Drep4 (GeneID 34734): #1 -0.92
CG11912 (GeneID 33205): #1 -0.08
PIG-K (GeneID 31163): #1 0.31
CG12316 (GeneID 39650): #1 0.13
GLS (GeneID 36396): #1 -0.01
CG13157 (GeneID 36355): #1 -0.31
CG1090 (GeneID 40551): #1 0.82; #2 0.86
CG12674 (GeneID 33384): #1 0.15
CG11672 (GeneID 40977): #1 1.01
mRpS28 (GeneID 37136): #1 -0.5
Zip42C.2 (GeneID 35580): #1 1.66
CG31388 (GeneID 41355): #1 0.01
Pus7 (GeneID 38969): #1 0.58
CG3061 (GeneID 41707): #1 -0.05
CG6638 (GeneID 38979): #1 -0.16
PNUTS (GeneID 33270): #1 0.96; #2 3.18

Records listed so far whose gene name starts with D or d:
replicate 1, z-score of dpERK with insulin, by target and reagent
D2hgdh (GeneID 31184): #1 0.64
Drep4 (GeneID 34734): #1 -0.92
